# No constants are given. Whether binding was seen depends on the method and setting. In cells and extracts the contact can be indirect. Some binding calls cover weakened binding; strength is not graded here.
# Amino acid sequences for entries named in this document (tags omitted). A change or cut given only in a name is not applied to a line headed by its entry.
# UniProt Q00613: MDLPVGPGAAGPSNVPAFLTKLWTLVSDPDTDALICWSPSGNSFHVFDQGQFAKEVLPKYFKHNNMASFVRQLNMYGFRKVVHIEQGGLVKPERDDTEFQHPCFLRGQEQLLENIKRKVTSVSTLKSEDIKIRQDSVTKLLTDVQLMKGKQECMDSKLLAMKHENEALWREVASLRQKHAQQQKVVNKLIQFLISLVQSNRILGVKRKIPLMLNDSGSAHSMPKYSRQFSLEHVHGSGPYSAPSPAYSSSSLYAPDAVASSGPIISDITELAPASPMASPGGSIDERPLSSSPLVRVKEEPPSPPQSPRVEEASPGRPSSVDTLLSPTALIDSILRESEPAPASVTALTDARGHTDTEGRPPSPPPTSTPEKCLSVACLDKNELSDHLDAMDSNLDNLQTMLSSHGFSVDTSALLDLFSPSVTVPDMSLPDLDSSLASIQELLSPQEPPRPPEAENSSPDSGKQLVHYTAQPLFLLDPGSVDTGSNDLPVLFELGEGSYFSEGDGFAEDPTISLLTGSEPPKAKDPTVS
# UniProt P53350: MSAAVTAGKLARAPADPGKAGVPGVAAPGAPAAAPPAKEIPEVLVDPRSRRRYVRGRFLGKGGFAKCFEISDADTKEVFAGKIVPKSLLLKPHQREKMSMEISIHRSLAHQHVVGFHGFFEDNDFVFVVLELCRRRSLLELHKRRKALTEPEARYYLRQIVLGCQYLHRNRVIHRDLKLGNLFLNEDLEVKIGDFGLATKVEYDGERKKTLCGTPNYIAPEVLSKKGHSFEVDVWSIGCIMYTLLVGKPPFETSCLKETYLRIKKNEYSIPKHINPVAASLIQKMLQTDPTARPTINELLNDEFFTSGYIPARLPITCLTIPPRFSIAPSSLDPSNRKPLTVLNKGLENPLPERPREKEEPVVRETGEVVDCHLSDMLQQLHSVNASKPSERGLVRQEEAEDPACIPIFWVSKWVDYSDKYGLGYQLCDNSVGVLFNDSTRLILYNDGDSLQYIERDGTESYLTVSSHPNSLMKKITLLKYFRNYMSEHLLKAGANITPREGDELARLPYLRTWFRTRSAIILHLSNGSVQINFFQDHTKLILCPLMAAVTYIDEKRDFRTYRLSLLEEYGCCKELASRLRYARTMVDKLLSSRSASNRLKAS
# UniProt Q92993: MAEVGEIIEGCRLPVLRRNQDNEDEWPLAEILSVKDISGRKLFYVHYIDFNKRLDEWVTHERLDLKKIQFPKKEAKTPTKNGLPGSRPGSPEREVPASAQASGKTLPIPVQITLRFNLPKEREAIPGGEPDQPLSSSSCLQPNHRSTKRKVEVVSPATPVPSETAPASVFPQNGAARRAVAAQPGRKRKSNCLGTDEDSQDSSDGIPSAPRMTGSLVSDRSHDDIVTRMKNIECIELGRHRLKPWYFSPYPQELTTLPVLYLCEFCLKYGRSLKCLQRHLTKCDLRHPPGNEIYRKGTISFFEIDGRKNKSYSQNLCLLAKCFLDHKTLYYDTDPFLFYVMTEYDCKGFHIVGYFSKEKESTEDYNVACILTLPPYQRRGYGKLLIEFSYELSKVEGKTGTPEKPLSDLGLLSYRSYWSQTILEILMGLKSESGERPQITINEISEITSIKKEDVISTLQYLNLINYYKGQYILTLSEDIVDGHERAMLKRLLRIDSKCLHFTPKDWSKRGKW
# UniProt Q9Y4A5: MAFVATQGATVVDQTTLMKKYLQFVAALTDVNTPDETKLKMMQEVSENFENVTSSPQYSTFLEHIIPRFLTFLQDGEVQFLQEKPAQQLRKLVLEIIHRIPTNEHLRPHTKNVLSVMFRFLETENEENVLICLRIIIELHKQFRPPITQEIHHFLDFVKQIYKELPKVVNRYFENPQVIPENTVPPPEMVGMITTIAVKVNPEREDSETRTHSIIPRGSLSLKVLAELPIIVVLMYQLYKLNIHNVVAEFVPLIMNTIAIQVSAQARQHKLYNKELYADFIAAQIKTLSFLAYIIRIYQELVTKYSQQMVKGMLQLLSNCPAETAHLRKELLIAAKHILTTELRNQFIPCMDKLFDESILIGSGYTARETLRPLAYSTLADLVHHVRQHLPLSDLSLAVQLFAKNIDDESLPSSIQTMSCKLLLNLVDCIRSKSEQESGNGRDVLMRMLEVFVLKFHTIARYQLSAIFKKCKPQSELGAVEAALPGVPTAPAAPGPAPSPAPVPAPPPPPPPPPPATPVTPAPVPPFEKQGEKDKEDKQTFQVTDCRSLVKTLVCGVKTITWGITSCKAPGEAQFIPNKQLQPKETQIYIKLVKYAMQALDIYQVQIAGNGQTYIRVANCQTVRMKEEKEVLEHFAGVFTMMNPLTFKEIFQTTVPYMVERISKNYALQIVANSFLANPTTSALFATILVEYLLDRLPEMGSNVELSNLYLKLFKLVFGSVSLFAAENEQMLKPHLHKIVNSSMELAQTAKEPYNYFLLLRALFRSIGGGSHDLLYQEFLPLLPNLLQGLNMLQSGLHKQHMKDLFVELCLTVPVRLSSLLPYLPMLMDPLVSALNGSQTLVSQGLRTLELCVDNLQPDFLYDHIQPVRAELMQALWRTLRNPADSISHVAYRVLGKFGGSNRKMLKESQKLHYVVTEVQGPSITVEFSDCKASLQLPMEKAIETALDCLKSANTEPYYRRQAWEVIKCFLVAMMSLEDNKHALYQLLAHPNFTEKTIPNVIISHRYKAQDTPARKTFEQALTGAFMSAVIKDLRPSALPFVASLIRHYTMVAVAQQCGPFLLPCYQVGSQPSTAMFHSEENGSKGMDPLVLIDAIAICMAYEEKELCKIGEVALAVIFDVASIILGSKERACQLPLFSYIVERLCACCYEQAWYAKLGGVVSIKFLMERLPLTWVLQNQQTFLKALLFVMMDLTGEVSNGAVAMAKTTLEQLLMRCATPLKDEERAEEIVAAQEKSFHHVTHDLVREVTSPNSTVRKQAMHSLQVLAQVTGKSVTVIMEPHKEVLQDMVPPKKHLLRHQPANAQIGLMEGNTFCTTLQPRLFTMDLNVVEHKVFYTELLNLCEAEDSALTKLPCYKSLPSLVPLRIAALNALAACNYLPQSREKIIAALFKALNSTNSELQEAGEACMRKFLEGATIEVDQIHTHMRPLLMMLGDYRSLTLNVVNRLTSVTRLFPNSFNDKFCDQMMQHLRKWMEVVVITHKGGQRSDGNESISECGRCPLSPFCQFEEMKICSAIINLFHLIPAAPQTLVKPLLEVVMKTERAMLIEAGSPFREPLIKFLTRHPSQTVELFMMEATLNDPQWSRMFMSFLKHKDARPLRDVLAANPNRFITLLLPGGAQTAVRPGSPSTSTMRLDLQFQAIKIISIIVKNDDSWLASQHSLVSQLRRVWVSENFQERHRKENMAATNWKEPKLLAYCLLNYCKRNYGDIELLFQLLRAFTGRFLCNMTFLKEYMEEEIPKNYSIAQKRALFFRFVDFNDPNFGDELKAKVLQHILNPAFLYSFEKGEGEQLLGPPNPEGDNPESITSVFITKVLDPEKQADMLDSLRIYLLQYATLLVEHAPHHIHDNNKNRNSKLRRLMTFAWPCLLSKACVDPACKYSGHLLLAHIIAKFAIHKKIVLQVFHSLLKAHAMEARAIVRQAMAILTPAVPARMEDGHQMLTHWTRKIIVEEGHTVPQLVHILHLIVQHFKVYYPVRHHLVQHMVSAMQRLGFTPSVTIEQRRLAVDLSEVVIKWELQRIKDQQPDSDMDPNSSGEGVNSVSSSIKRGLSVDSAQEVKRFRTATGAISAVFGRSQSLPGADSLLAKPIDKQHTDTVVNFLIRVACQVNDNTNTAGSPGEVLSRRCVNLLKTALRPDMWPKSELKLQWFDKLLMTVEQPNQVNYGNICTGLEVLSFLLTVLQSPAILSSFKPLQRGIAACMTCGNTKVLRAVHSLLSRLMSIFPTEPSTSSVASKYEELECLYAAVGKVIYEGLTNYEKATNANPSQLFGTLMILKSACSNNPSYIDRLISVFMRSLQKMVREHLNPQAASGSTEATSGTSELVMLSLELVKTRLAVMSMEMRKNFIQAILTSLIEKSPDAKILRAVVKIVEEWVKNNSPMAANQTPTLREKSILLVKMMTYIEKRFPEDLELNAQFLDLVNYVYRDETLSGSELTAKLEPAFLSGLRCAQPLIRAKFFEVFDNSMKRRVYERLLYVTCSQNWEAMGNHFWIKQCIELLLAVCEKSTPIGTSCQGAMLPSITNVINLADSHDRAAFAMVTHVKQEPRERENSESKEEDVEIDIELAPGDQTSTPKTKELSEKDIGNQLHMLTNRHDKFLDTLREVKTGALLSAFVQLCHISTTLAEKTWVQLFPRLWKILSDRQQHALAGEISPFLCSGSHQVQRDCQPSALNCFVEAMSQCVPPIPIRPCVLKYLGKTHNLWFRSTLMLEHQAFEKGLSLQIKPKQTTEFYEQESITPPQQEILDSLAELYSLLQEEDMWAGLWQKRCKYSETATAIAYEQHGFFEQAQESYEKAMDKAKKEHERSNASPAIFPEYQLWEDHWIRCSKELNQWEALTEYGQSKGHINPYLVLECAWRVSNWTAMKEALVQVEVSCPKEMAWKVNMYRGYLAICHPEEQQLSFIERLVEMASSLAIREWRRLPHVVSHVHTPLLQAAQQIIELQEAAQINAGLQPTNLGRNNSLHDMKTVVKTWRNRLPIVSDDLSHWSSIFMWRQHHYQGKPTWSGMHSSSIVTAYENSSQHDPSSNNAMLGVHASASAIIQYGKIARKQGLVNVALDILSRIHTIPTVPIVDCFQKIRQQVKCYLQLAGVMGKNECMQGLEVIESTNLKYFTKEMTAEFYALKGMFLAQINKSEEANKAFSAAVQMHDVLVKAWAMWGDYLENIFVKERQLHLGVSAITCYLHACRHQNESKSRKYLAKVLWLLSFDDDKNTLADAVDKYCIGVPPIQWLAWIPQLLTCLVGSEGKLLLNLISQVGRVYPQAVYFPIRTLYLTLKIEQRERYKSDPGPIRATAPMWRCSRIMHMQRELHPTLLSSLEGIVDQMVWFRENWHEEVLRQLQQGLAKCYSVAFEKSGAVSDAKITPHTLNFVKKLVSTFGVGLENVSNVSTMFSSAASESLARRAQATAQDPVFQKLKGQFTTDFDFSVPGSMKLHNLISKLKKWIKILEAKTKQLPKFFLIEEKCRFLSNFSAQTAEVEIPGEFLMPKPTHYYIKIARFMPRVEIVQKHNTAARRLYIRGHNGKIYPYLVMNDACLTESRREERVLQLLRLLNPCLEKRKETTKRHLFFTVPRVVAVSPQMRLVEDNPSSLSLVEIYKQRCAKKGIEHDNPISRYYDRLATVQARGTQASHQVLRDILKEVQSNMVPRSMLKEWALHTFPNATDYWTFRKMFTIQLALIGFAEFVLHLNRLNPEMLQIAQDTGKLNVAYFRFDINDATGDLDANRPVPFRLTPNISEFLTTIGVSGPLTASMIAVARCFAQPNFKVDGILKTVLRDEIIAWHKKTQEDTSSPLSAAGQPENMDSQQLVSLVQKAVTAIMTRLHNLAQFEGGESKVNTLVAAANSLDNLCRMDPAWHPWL
# How the values were obtained:
# [1] = molecular target: heat shock transcription factor 1 (HSF1) (human (endogenous in HeLa)) (UniProt Q00613); assay: co-IP; nuclear (and cytoplasmic) extracts of heat-shocked HeLa cells, 150 mM NaCl, 1% NP-40; anti-HSF1 (anti-mHSF1n) or non-immune serum, protein A-Sepharose, immunoblot; in some panels after knock-down of HSF1, TRRAP, TIP60 or p300
# [2] = molecular target: heat shock transcription factor 1 (HSF1) (human (endogenous in HeLa)) (UniProt Q00613); assay: co-IP; Supplementary Fig. 2g: hTRRAP-3×FLAG or hTRRAPΔ1801-1833-3×FLAG expressed in cells; legend not shown, which partner was precipitated is not told
# HA-hPLK1-K82R (human) = HA-hPLK1-K82R (human) (UniProt P53350); assay: co-IP; nuclear extracts of heat-shocked cells in which endogenous PLK1 was replaced with GFP, HA-hPLK1 or its kinase-dead mutant; precipitated with anti-PLK1, immunoblot
# [3] = molecular target: heat shock transcription factor 1 (HSF1) (human (endogenous in HeLa)) (UniProt Q00613); assay: co-IP; nuclear (and cytoplasmic) extracts of heat-shocked HeLa cells, 150 mM NaCl, 1% NP-40; anti-HSF1 (anti-mHSF1n) or non-immune serum, protein A-Sepharose, immunoblot; in some panels after knock-down of HSF1, TRRAP, TIP60 or p300; remark: listed apart in the source
molecule,measurement,setting,value
PLK1 (from UniProt P53350 1-603) (enzyme),binding,[1],binds
TIP60 (from UniProt Q92993 1-513) (enzyme),binding,[1],binds
TRRAP (from UniProt Q9Y4A5 1-3859),binding,[1],binds
"hTRRAP (isoform 2, accession number NP_003487) tagged with 3×FLAG peptide at the C-terminus (from UniProt Q9Y4A5-2 1-3830)",binding,[2],binds
heat shock transcription factor 1 (HSF1) (from UniProt Q00613 1-529),binding,HA-hPLK1-K82R (human),binds
p400 (from UniProt Q96L91 1-3159),binding,[1],binds
"tripartite motif (TRIM) 33 (protein, UniProt Q9UPN9 1-1127) MAENKGGGEAESGGGGSGSAPVTAGAAGPAAQEAEPPLTAVLVEEEEEEGGRAGAEGGAAGPDDGGVAAASSGSAQAASSPAASVGTGVAGGAVSTPAPAPASAPAPGPSAGPPPGPPASLLDTCAVCQQSLQSRREAEPKLLPCLHSFCLRCLPEPERQLSVPIPGGSNGDIQQVGVIRCPVCRQECRQIDLVDNYFVKDTSEAPSSSDEKSEQVCTSCEDNASAVGFCVECGEWLCKTCIEAHQRVKFTKDHLIRKKEDVSESVGASGQRPVFCPVHKQEQLKLFCETCDRLTCRDCQLLEHKEHRYQFLEEAFQNQKGAIENLLAKLLEKKNYVHFAATQVQNRIKEVNETNKRVEQEIKVAIFTLINEINKKGKSLLQQLENVTKERQMKLLQQQNDITGLSRQVKHVMNFTNWAIASGSSTALLYSKRLITFQLRHILKARCDPVPAANGAIRFHCDPTFWAKNVVNLGNLVIESKPAPGYTPNVVVGQVPPGTNHISKTPGQINLAQLRLQHMQQQVYAQKHQQLQQMRMQQPPAPVPTTTTTTQQHPRQAAPQMLQQQPPRLISVQTMQRGNMNCGAFQAHQMRLAQNAARIPGIPRHSGPQYSMMQPHLQRQHSNPGHAGPFPVVSVHNTTINPTSPTTATMANANRGPTSPSVTAIELIPSVTNPENLPSLPDIPPIQLEDAGSSSLDNLLSRYISGSHLPPQPTSTMNPSPGPSALSPGSSGLSNSHTPVRPPSTSSTGSRGSCGSSGRTAEKTSLSFKSDQVKVKQEPGTEDEICSFSGGVKQEKTEDGRRSACMLSSPESSLTPPLSTNLHLESELDALASLENHVKIEPADMNESCKQSGLSSLVNGKSPIRSLMHRSARIGGDGNNKDDDPNEDWCAVCQNGGDLLCCEKCPKVFHLTCHVPTLLSFPSGDWICTFCRDIGKPEVEYDCDNLQHSKKGKTAQGLSPVDQRKCERLLLYLYCHELSIEFQEPVPASIPNYYKIIKKPMDLSTVKKKLQKKHSQHYQIPDDFVADVRLIFKNCERFNEMMKVVQVYADTQEINLKADSEVAQAGKAVALYFEDKLTEIYSDRTFAPLPEFEQEEDDGEVTEDSDEDFIQPRRKRLKSDERPVHIK",binding,[3],binds
"TRIM24 (protein, UniProt O15164 1-1050) MEVAVEKAVAAAAAASAAASGGPSAAPSGENEAESRQGPDSERGGEAARLNLLDTCAVCHQNIQSRAPKLLPCLHSFCQRCLPAPQRYLMLPAPMLGSAETPPPVPAPGSPVSGSSPFATQVGVIRCPVCSQECAERHIIDNFFVKDTTEVPSSTVEKSNQVCTSCEDNAEANGFCVECVEWLCKTCIRAHQRVKFTKDHTVRQKEEVSPEAVGVTSQRPVFCPFHKKEQLKLYCETCDKLTCRDCQLLEHKEHRYQFIEEAFQNQKVIIDTLITKLMEKTKYIKFTGNQIQNRIIEVNQNQKQVEQDIKVAIFTLMVEINKKGKALLHQLESLAKDHRMKLMQQQQEVAGLSKQLEHVMHFSKWAVSSGSSTALLYSKRLITYRLRHLLRARCDASPVTNNTIQFHCDPSFWAQNIINLGSLVIEDKESQPQMPKQNPVVEQNSQPPSGLSSNQLSKFPTQISLAQLRLQHMQQQVMAQRQQVQRRPAPVGLPNPRMQGPIQQPSISHQQPPPRLINFQNHSPKPNGPVLPPHPQQLRYPPNQNIPRQAIKPNPLQMAFLAQQAIKQWQISSGQGTPSTTNSTSSTPSSPTITSAAGYDGKAFGSPMIDLSSPVGGSYNLPSLPDIDCSSTIMLDNIVRKDTNIDHGQPRPPSNRTVQSPNSSVPSPGLAGPVTMTSVHPPIRSPSASSVGSRGSSGSSSKPAGADSTHKVPVVMLEPIRIKQENSGPPENYDFPVVIVKQESDEESRPQNANYPRSILTSLLLNSSQSSTSEETVLRSDAPDSTGDQPGLHQDNSSNGKSEWLDPSQKSPLHVGETRKEDDPNEDWCAVCQNGGELLCCEKCPKVFHLSCHVPTLTNFPSGEWICTFCRDLSKPEVEYDCDAPSHNSEKKKTEGLVKLTPIDKRKCERLLLFLYCHEMSLAFQDPVPLTVPDYYKIIKNPMDLSTIKKRLQEDYSMYSKPEDFVADFRLIFQNCAEFNEPDSEVANAGIKLENYFEELLKNLYPEKRFPKPEFRNESEDNKFSDDSDDDFVQPRKKRLKSIEERQLLK",binding,[3],binds

# Source: publication PMC9338313
